Laboratory results taken from the supplement of paper PMC7661543.
± gives the standard deviation of the averaged measurements. Differences between knockout arms are mostly noise.

Test system: HCC-38
Assay: relative cell number vs DMSO control (72 h) (% of DMSO); higher = less growth inhibition (more cells)
Experimental: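 QMAP-Seq: a pool of 5 breast cancer cell lines (ZR-75-1, SKBR3, HCC-38, MDA-MB-231, BT-20), each carrying 12 doxycycline-inducible Cas9 sgRNA perturbations (11 knockouts plus non-targeting sgNT), was treated with compounds for 72 h at four 10-fold doses (10 nM-10 uM or 1 nM-1 uM range). Barcodes were amplified and sequenced, and cell number was interpolated from 293T spike-in standard curves. The result is expressed as % of the median of DMSO wells. Two biological replicates.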

O=C(O)CC[C@H]1CC[C@@](c2cc(F)ccc2F)(S(=O)(=O)c2ccc(Cl)cc2)CC1 [MK0752]
Conditions | relative cell number
sgRNA knockout: sgATF3, 10 nM | 134 ± 44
sgRNA knockout: sgATF3, 100 nM | 122 ± 23
sgRNA knockout: sgATF3, 1000 nM | 116 ± 1.2
sgRNA knockout: sgATF3, 10000 nM | 125 ± 44
sgRNA knockout: sgATF4, 10 nM | 129 ± 39
sgRNA knockout: sgATF4, 100 nM | 115 ± 18
sgRNA knockout: sgATF4, 1000 nM | 102 ± 1.9
sgRNA knockout: sgATF4, 10000 nM | 111 ± 53
sgRNA knockout: sgATF6, 10 nM | 145 ± 41
sgRNA knockout: sgATF6, 100 nM | 123 ± 28
sgRNA knockout: sgATF6, 1000 nM | 140.7 ± 0.32
sgRNA knockout: sgATF6, 10000 nM | 130 ± 37
sgRNA knockout: sgATG7, 10 nM | 134 ± 44
sgRNA knockout: sgATG7, 100 nM | 115 ± 16
sgRNA knockout: sgATG7, 1000 nM | 111.6 ± 0.86
sgRNA knockout: sgATG7, 10000 nM | 111 ± 42
sgRNA knockout: sgERN1, 10 nM | 130 ± 42
sgRNA knockout: sgERN1, 100 nM | 119 ± 23
sgRNA knockout: sgERN1, 1000 nM | 119 ± 14
sgRNA knockout: sgERN1, 10000 nM | 132 ± 50
sgRNA knockout: sgHSF1, 10 nM | 165 ± 86
sgRNA knockout: sgHSF1, 100 nM | 140 ± 27
sgRNA knockout: sgHSF1, 1000 nM | 132 ± 9.9
sgRNA knockout: sgHSF1, 10000 nM | 141 ± 25
sgRNA knockout: sgHSF2, 10 nM | 156 ± 67
sgRNA knockout: sgHSF2, 100 nM | 117 ± 34
sgRNA knockout: sgHSF2, 1000 nM | 129 ± 6.8
sgRNA knockout: sgHSF2, 10000 nM | 134 ± 50
sgRNA knockout: sgKEAP1, 10 nM | 178 ± 63
sgRNA knockout: sgKEAP1, 100 nM | 128 ± 34
sgRNA knockout: sgKEAP1, 1000 nM | 139 ± 3.5
sgRNA knockout: sgKEAP1, 10000 nM | 151 ± 13
sgRNA knockout: sgNFE2L2, 10 nM | 129 ± 38
sgRNA knockout: sgNFE2L2, 100 nM | 110 ± 18
sgRNA knockout: sgNFE2L2, 1000 nM | 112 ± 13
sgRNA knockout: sgNFE2L2, 10000 nM | 117 ± 61
sgRNA knockout: sgSLC35F2, 10 nM | 142 ± 45
sgRNA knockout: sgSLC35F2, 100 nM | 123 ± 22
sgRNA knockout: sgSLC35F2, 1000 nM | 113 ± 6.4
sgRNA knockout: sgSLC35F2, 10000 nM | 116 ± 34
sgRNA knockout: sgXBP1, 10 nM | 140 ± 50
sgRNA knockout: sgXBP1, 100 nM | 121 ± 12
sgRNA knockout: sgXBP1, 1000 nM | 119 ± 4.4
sgRNA knockout: sgXBP1, 10000 nM | 122 ± 54

COc1cc(CCc2cc(NC(=O)c3ccc(N4CC(C)NC(C)C4)cc3)n[nH]2)cc(OC)c1 (configuration not stated) [AZD4547]
Conditions | relative cell number
sgRNA knockout: sgATF3, 10 nM | 87.4 ± 3.6
sgRNA knockout: sgATF3, 100 nM | 67.2 ± 7.3
sgRNA knockout: sgATF3, 1000 nM | 54.5 ± 6.3
sgRNA knockout: sgATF3, 10000 nM | 43.9 ± 1.9
sgRNA knockout: sgATF4, 10 nM | 88.4 ± 2.2
sgRNA knockout: sgATF4, 100 nM | 67 ± 14
sgRNA knockout: sgATF4, 1000 nM | 54.4 ± 3.5
sgRNA knockout: sgATF4, 10000 nM | 46.4 ± 2.9
sgRNA knockout: sgATF6, 10 nM | 81.2 ± 2.7
sgRNA knockout: sgATF6, 100 nM | 52.6 ± 5.6
sgRNA knockout: sgATF6, 1000 nM | 57.2 ± 2.3
sgRNA knockout: sgATF6, 10000 nM | 35.53 ± 0.19
sgRNA knockout: sgATG7, 10 nM | 85.8 ± 7.2
sgRNA knockout: sgATG7, 100 nM | 70.2 ± 15
sgRNA knockout: sgATG7, 1000 nM | 55.2 ± 4.1
sgRNA knockout: sgATG7, 10000 nM | 41 ± 4.5
sgRNA knockout: sgERN1, 10 nM | 87.1 ± 12
sgRNA knockout: sgERN1, 100 nM | 64.1 ± 4.6
sgRNA knockout: sgERN1, 1000 nM | 56.5 ± 4.5
sgRNA knockout: sgERN1, 10000 nM | 42.6 ± 1.4
sgRNA knockout: sgHSF1, 10 nM | 85.3 ± 12
sgRNA knockout: sgHSF1, 100 nM | 70.7 ± 14
sgRNA knockout: sgHSF1, 1000 nM | 79.9 ± 9.4
sgRNA knockout: sgHSF1, 10000 nM | 37.8 ± 1.8
sgRNA knockout: sgHSF2, 10 nM | 86.4 ± 6
sgRNA knockout: sgHSF2, 100 nM | 69.9 ± 11
sgRNA knockout: sgHSF2, 1000 nM | 57.7 ± 6.2
sgRNA knockout: sgHSF2, 10000 nM | 43.7 ± 4
sgRNA knockout: sgKEAP1, 10 nM | 76.9 ± 4
sgRNA knockout: sgKEAP1, 100 nM | 67.2 ± 8.5
sgRNA knockout: sgKEAP1, 1000 nM | 61.4 ± 11
sgRNA knockout: sgKEAP1, 10000 nM | 33.5 ± 9.4
sgRNA knockout: sgNFE2L2, 10 nM | 87.49 ± 0.24
sgRNA knockout: sgNFE2L2, 100 nM | 63.3 ± 16
sgRNA knockout: sgNFE2L2, 1000 nM | 52.3 ± 2.4
sgRNA knockout: sgNFE2L2, 10000 nM | 44.6 ± 4.3
sgRNA knockout: sgSLC35F2, 10 nM | 93.09 ± 0.72
sgRNA knockout: sgSLC35F2, 100 nM | 70.3 ± 14
sgRNA knockout: sgSLC35F2, 1000 nM | 62.44 ± 0.28
sgRNA knockout: sgSLC35F2, 10000 nM | 40.9 ± 2.8
sgRNA knockout: sgXBP1, 10 nM | 88.8 ± 1
sgRNA knockout: sgXBP1, 100 nM | 60.6 ± 10
sgRNA knockout: sgXBP1, 1000 nM | 59.5 ± 0.66
sgRNA knockout: sgXBP1, 10000 nM | 42.4 ± 6.6

CC(C)n1c(/C=C/C(O)CC(O)CC(=O)O)c(-c2ccc(F)cc2)c2ccccc21 (configuration not stated) [Fluvastatin]
Conditions | relative cell number
sgRNA knockout: sgATF3, 10 nM | 119 ± 22
sgRNA knockout: sgATF3, 100 nM | 101.1 ± 0.52
sgRNA knockout: sgATF3, 1000 nM | 95.3 ± 12
sgRNA knockout: sgATF3, 10000 nM | 63.7 ± 3.7
sgRNA knockout: sgATF4, 10 nM | 116 ± 12
sgRNA knockout: sgATF4, 100 nM | 93.3 ± 1.4
sgRNA knockout: sgATF4, 1000 nM | 102.6 ± 0.95
sgRNA knockout: sgATF4, 10000 nM | 66.05 ± 0.08
sgRNA knockout: sgATF6, 10 nM | 108 ± 12
sgRNA knockout: sgATF6, 100 nM | 97.4 ± 1.5
sgRNA knockout: sgATF6, 1000 nM | 108 ± 30
sgRNA knockout: sgATF6, 10000 nM | 61.4 ± 8.1
sgRNA knockout: sgATG7, 10 nM | 106 ± 5.8
sgRNA knockout: sgATG7, 100 nM | 102 ± 2.8
sgRNA knockout: sgATG7, 1000 nM | 89.8 ± 10
sgRNA knockout: sgATG7, 10000 nM | 61.3 ± 2.7
sgRNA knockout: sgERN1, 10 nM | 106 ± 7.3
sgRNA knockout: sgERN1, 100 nM | 97.5 ± 9.2
sgRNA knockout: sgERN1, 1000 nM | 111 ± 1.9
sgRNA knockout: sgERN1, 10000 nM | 60.8 ± 7.9
sgRNA knockout: sgHSF1, 10 nM | 106 ± 1.1
sgRNA knockout: sgHSF1, 100 nM | 103 ± 13
sgRNA knockout: sgHSF1, 1000 nM | 93.7 ± 2.3
sgRNA knockout: sgHSF1, 10000 nM | 77 ± 19
sgRNA knockout: sgHSF2, 10 nM | 108 ± 6.2
sgRNA knockout: sgHSF2, 100 nM | 101 ± 12
sgRNA knockout: sgHSF2, 1000 nM | 97.2 ± 16
sgRNA knockout: sgHSF2, 10000 nM | 71.1 ± 10
sgRNA knockout: sgKEAP1, 10 nM | 91 ± 7.5
sgRNA knockout: sgKEAP1, 100 nM | 109 ± 14
sgRNA knockout: sgKEAP1, 1000 nM | 93.1 ± 16
sgRNA knockout: sgKEAP1, 10000 nM | 64.6 ± 12
sgRNA knockout: sgNFE2L2, 10 nM | 112 ± 8.8
sgRNA knockout: sgNFE2L2, 100 nM | 93.7 ± 6.1
sgRNA knockout: sgNFE2L2, 1000 nM | 112 ± 16
sgRNA knockout: sgNFE2L2, 10000 nM | 64.28 ± 0.08
sgRNA knockout: sgSLC35F2, 10 nM | 106 ± 3.8
sgRNA knockout: sgSLC35F2, 100 nM | 100 ± 16
sgRNA knockout: sgSLC35F2, 1000 nM | 101.5 ± 0.93
sgRNA knockout: sgSLC35F2, 10000 nM | 62.1 ± 5.8
sgRNA knockout: sgXBP1, 10 nM | 110 ± 7
sgRNA knockout: sgXBP1, 100 nM | 100 ± 17
sgRNA knockout: sgXBP1, 1000 nM | 105 ± 13
sgRNA knockout: sgXBP1, 10000 nM | 60.9 ± 4.3
